According to US11988734B2, “Method and application for measuring the intracellular water transmembrane efflux rate, and measurement method and system for magnetic resonance imaging biomarker of glioma” (ZHEJIANG UNIVERSITY, priority 2022, dated 2024):
For at least one compound, name, drawing or mass did not settle the structure.

Experiments:
Format in all cases: cell-based
C6 cells [1] = assay: Cell viability by CCK-8 in TMZ treatment; details: with increase of TMZ treatment time
C6 cells [2] = assay: Proliferation rate and Ki-67 expression level of C6 cells during TMZ treatment; details: with increase of TMZ treatment time
C6 cells [3] = assay: Cell migration assessment (scratch test); details: with increase of TMZ treatment time (day 3, day 7)

Cn1nnc2c(C(N)=O)ncn2c1=O [TMZ, temozolomide]
gradually decreased: cell viability and proliferation index obtained by CCK-8 (C6 cells [1]) | Ki-67 expression level (C6 cells [2]) | proliferation rate (C6 cells [2]) | cell migration (scratch test) (C6 cells [3])
